Test results reported in the supplement of paper PMC7238544.
Counter-ions that a name gives are not always drawn. ± gives the standard deviation of the averaged measurements. The list shows a part of the results. The data scatter; read single values as rough.

Experiments:
hAMSC donor 1 [1] = experiment: Hoechst total cell count ratio vs vehicle control; higher = more cells (less toxicity)
hAMSC donor 2 [2] = experiment: as above
hAMSC donor 1 [3] = experiment: transgenic luciferase activity (RLU/mg protein) fold change vs vehicle control (ratio); higher = more transgene expression
hAMSC donor 2 [4] = experiment: as above
hAMSC donor 1 [5] = experiment: transfection efficiency (EGFP+ cells / Hoechst count) fold change vs vehicle control (ratio); hAMSC are human adipose-derived mesenchymal stem cells given an EGFP-luciferase plasmid by lipofection; higher = enhanced transfection
hAMSC donor 2 [6] = experiment: as above
[7] = priming compound concentration 0.2 µM
[8] = priming compound concentration 1.7 µM
[9] = priming compound concentration 13 µM

| SMILES | Hoechst total cell count ratio (hAMSC donor 1 [1]; [7]) | Hoechst total cell count ratio (hAMSC donor 1 [1]; [8]) | Hoechst total cell count ratio (hAMSC donor 1 [1]; [9]) | Hoechst total cell count ratio (hAMSC donor 2 [2]; [7]) | Hoechst total cell count ratio (hAMSC donor 2 [2]; [8]) | Hoechst total cell count ratio (hAMSC donor 2 [2]; [9]) | transgenic luciferase activity (hAMSC donor 1 [3]; [7]) | transgenic luciferase activity (hAMSC donor 1 [3]; [8]) | transgenic luciferase activity (hAMSC donor 1 [3]; [9]) | transgenic luciferase activity (hAMSC donor 2 [4]; [9]) | transfection efficiency (hAMSC donor 1 [5]; [7]) | transfection efficiency (hAMSC donor 1 [5]; [8]) | transfection efficiency (hAMSC donor 1 [5]; [9]) | transfection efficiency (hAMSC donor 2 [6]; [7]) | transfection efficiency (hAMSC donor 2 [6]; [8]) | transfection efficiency (hAMSC donor 2 [6]; [9]) | transgenic luciferase activity (hAMSC donor 2 [4]; [7]) | transgenic luciferase activity (hAMSC donor 2 [4]; [8]) |
| --- | --- | --- | --- | --- | --- | --- | --- | --- | --- | --- | --- | --- | --- | --- | --- | --- | --- | --- |
| CCC[C@@H]1C[C@@H](C(=O)N[C@@H]([C@H]2O[C@H](SC)[C@H](O)[C@@H](O)[C@H]2O)[C@@H](C)O)N(C)C1 [Lincomycin hydrochloride] | 1.48 ± 0.2 | 1.25 ± 0.15 | 1.21 ± 0.1 | 0.903 ± 0.19 | 0.888 ± 0.058 | 1.03 ± 0.037 | 0.627 ± 0.19 | 1.49 ± 0.33 | 0.769 ± 0.41 | 1.25 ± 0.31 | 0.992 ± 0.096 | 1.2 ± 0.24 | 0.836 ± 0.043 | 1.06 ± 0.24 | 1.13 ± 0.11 | 1.35 ± 0.19 | – | – |
| CCCCC1=NC2(CCCC2)C(=O)N1Cc1ccc(-c2ccccc2-c2nnn[nH]2)cc1 [Irbesartan] | 1.33 ± 0.3 | 1.21 ± 0.14 | 1.235 ± 0.0083 | 1.17 ± 0.28 | 0.954 ± 0.07 | 1.52 ± 0.14 | 0.6 ± 0.27 | 0.831 ± 0.23 | 2.08 ± 1.8 | 1.69 ± 0.77 | 0.871 ± 0.18 | 1.01 ± 0.13 | 1.08 ± 0.25 | 0.986 ± 0.4 | 1.24 ± 0.18 | 1.75 ± 0.19 | – | – |
| CC(COc1ccccc1Cc1ccccc1)N1CCCCC1 (stereo unspecified) [Benproperine phosphate] | 1.26 ± 0.056 | 1.36 ± 0.06 | 1.24 ± 0.082 | 1.16 ± 0.088 | 1.04 ± 0.16 | 1.57 ± 0.031 | 0.722 ± 0.17 | 0.883 ± 0.34 | 1.21 ± 0.5 | 0.882 ± 0.49 | 1.09 ± 0.53 | 1.09 ± 0.21 | 0.996 ± 0.35 | 1.06 ± 0.4 | 1.18 ± 0.27 | 0.888 ± 0.13 | 0.63 ± 0.2 | 1.24 ± 0.1 |
| CCN1CCC[C@H]1CNC(=O)c1cc(S(N)(=O)=O)ccc1OC [Levosulpiride] | 1.2 ± 0.059 | 1.03 ± 0.13 | 1.08 ± 0.15 | 1.06 ± 0.22 | 1.05 ± 0.25 | 1.43 ± 0.42 | 0.586 ± 0.23 | 0.832 ± 0.28 | 2.32 ± 2.5 | 1.16 ± 0.64 | 1.43 ± 0.52 | 1.28 ± 0.49 | 1.32 ± 0.14 | 1.26 ± 0.4 | 1.18 ± 0.41 | 1.1 ± 0.21 | 0.62 ± 0.21 | 0.752 ± 0.14 |
| O=C(O)COCCN1CCN([C@H](c2ccccc2)c2ccc(Cl)cc2)CC1 [Levocetirizine] | 1.55 ± 0.13 | 1.18 ± 0.054 | 1.08 ± 0.14 | 1.26 ± 0.36 | 0.637 ± 0.069 | 1.11 ± 0.07 | 0.567 ± 0.19 | 0.725 ± 0.36 | 0.42 ± 0.055 | 1.3 ± 0.61 | 0.983 ± 0.31 | 1.48 ± 0.098 | 0.996 ± 0.23 | 1.04 ± 0.23 | 1.9 ± 0.37 | 1.44 ± 0.52 | – | – |
| Oc1ncnc2[nH]ncc12 [Allopurinol] | 1.14 ± 0.18 | 1.17 ± 0.16 | 1.22 ± 0.12 | 0.748 ± 0.1 | 0.961 ± 0.17 | 1.67 ± 0.55 | 0.785 ± 0.32 | 0.623 ± 0.23 | 1.3 ± 0.67 | 1.08 ± 0.21 | 1.07 ± 0.084 | 1.17 ± 0.38 | 0.944 ± 0.27 | 1.39 ± 0.17 | 1.03 ± 0.02 | 1.38 ± 0.089 | – | – |
| CCOC(=O)N1CCC(=C2c3ccc(Cl)cc3CCc3cccnc32)CC1 [Loratadine] | – | – | – | – | – | – | 0.646 ± 0.054 | 0.97 ± 0.23 | 0.143 ± 0.038 | 0.747 ± 0.038 | 1.16 ± 0.2 | 1.07 ± 0.31 | 1.1 ± 0.39 | 0.849 ± 0.17 | 1.17 ± 0.1 | 1.07 ± 0.22 | 0.602 ± 0.15 | 0.587 ± 0.11 |
| CCN(CC)CC#CCOC(=O)C(O)(c1ccccc1)C1CCCCC1 (stereo unspecified) [Oxybutynin hydrochloride] | 1.44 ± 0.073 | 1.08 ± 0.093 | 1.29 ± 0.16 | 0.986 ± 0.034 | 1.02 ± 0.062 | 1.32 ± 0.11 | – | 0.655 ± 0.081 | 0.388 ± 0.11 | 0.509 ± 0.1 | 1.08 ± 0.022 | 1.25 ± 0.083 | 1.4 ± 0.14 | 0.869 ± 0.047 | 0.958 ± 0.044 | 0.778 ± 0.077 | 1.31 ± 0.61 | 0.664 ± 0.12 |
| CC(C(O)c1ccc(O)cc1)N1CCC(Cc2ccccc2)CC1 (stereo unspecified) [Ifenprodil hemitartrate] | 1.34 ± 0.11 | 1.11 ± 0.24 | 1.26 ± 0.15 | 1.14 ± 0.058 | 1.36 ± 0.09 | 1.16 ± 0.1 | – | 1.03 ± 0.58 | 0.482 ± 0.19 | 0.69 ± 0.11 | 1.28 ± 0.29 | 1.16 ± 0.2 | 0.992 ± 0.23 | 0.679 ± 0.1 | 0.907 ± 0.09 | 1.03 ± 0.18 | 0.395 ± 0.035 | 0.838 ± 0.062 |
| COc1ccc2cc(CCC(C)=O)ccc2c1 [Nabumetone] | 1.38 ± 0.21 | 1.2 ± 0.061 | 1.38 ± 0.17 | 1.15 ± 0.03 | 1.27 ± 0.21 | 1.16 ± 0.13 | – | 1.27 ± 0.17 | 0.628 ± 0.1 | 1.23 ± 0.25 | 0.993 ± 0.15 | 1.58 ± 0.31 | 1.23 ± 0.28 | 0.918 ± 0.08 | 1.16 ± 0.058 | 1.4 ± 0.13 | 0.898 ± 0.38 | 0.953 ± 0.46 |
| COc1ccc(C2CNC(=O)C2)cc1OC1CCCC1 (stereo unspecified) [Rolipram] | 1.33 ± 0.25 | 1.25 ± 0.18 | 1.18 ± 0.18 | 1.13 ± 0.082 | 1.37 ± 0.067 | 1.45 ± 0.42 | – | 0.556 ± 0.15 | 1.31 ± 0.64 | 0.778 ± 0.14 | 0.796 ± 0.28 | 0.962 ± 0.31 | 1.27 ± 0.59 | 0.675 ± 0.11 | 0.962 ± 0.17 | 0.919 ± 0.17 | 0.399 ± 0.098 | 0.684 ± 0.086 |
| CCC(=O)NS(=O)(=O)c1ccc(-c2c(-c3ccccc3)noc2C)cc1 [Parecoxib sodium] | 1.13 ± 0.19 | 1.23 ± 0.021 | 1.16 ± 0.068 | 1.17 ± 0.11 | 1.25 ± 0.042 | 1.22 ± 0.15 | – | 1.02 ± 0.24 | 1.13 ± 0.44 | 0.85 ± 0.19 | 1.06 ± 0.46 | 1.15 ± 0.31 | 1.11 ± 0.077 | 0.903 ± 0.08 | 0.998 ± 0.083 | 1.13 ± 0.18 | 0.607 ± 0.04 | 0.673 ± 0.06 |
| O=C1c2c(O)ccc(O)c2C(=O)c2c(NCCNCCO)ccc(NCCNCCO)c21 [Mitoxantrone hydrochloride] | 0.921 ± 0.033 | 0.476 ± 0.013 | 0.16 ± 0.064 | 0.43 ± 0.007 | 0.275 ± 0.043 | 0.053 ± 0.0076 | 0.89 ± 0.21 | 3.89 ± 1.6 | – | 0.000366 ± 2.3e-05 | 1.36 ± 0.33 | 1.3 ± 0.21 | 0.168 ± 0.13 | 2.51 ± 0.23 | 2.71 ± 0.19 | 0.111 ± 0.19 | 2.13 ± 0.8 | 0.743 ± 0.37 |
| Nc1nc(=O)c2nc(CNc3ccc(C(=O)N[C@@H](CCC(=O)O)C(=O)O)cc3)cnc2[nH]1 [Folic acid] | 1.42 ± 0.023 | 1.1 ± 0.042 | 1.32 ± 0.12 | 1.13 ± 0.067 | 1.102 ± 0.0078 | 1.19 ± 0.26 | – | 1.23 ± 0.23 | 0.521 ± 0.16 | 0.845 ± 0.16 | 1.24 ± 0.51 | 1.01 ± 0.29 | 1.03 ± 0.28 | 0.912 ± 0.12 | 1.07 ± 0.2 | 1.26 ± 0.19 | 1.21 ± 0.19 | 0.742 ± 0.056 |

Random excerpt: 2 compounds from above, in no set order.

| SMILES | Hoechst total cell count ratio (hAMSC donor 1 [1]; [7]) | Hoechst total cell count ratio (hAMSC donor 1 [1]; [8]) | Hoechst total cell count ratio (hAMSC donor 1 [1]; [9]) | Hoechst total cell count ratio (hAMSC donor 2 [2]; [7]) | Hoechst total cell count ratio (hAMSC donor 2 [2]; [8]) | Hoechst total cell count ratio (hAMSC donor 2 [2]; [9]) | transgenic luciferase activity (hAMSC donor 1 [3]; [7]) | transgenic luciferase activity (hAMSC donor 1 [3]; [8]) | transgenic luciferase activity (hAMSC donor 1 [3]; [9]) | transgenic luciferase activity (hAMSC donor 2 [4]; [9]) | transfection efficiency (hAMSC donor 1 [5]; [7]) | transfection efficiency (hAMSC donor 1 [5]; [8]) | transfection efficiency (hAMSC donor 1 [5]; [9]) | transfection efficiency (hAMSC donor 2 [6]; [7]) | transfection efficiency (hAMSC donor 2 [6]; [8]) | transfection efficiency (hAMSC donor 2 [6]; [9]) | transgenic luciferase activity (hAMSC donor 2 [4]; [7]) | transgenic luciferase activity (hAMSC donor 2 [4]; [8]) |
| --- | --- | --- | --- | --- | --- | --- | --- | --- | --- | --- | --- | --- | --- | --- | --- | --- | --- | --- |
| CCCCC1=NC2(CCCC2)C(=O)N1Cc1ccc(-c2ccccc2-c2nnn[nH]2)cc1 [Irbesartan] | 1.33 ± 0.3 | 1.21 ± 0.14 | 1.235 ± 0.0083 | 1.17 ± 0.28 | 0.954 ± 0.07 | 1.52 ± 0.14 | 0.6 ± 0.27 | 0.831 ± 0.23 | 2.08 ± 1.8 | 1.69 ± 0.77 | 0.871 ± 0.18 | 1.01 ± 0.13 | 1.08 ± 0.25 | 0.986 ± 0.4 | 1.24 ± 0.18 | 1.75 ± 0.19 | – | – |
| CC(C(O)c1ccc(O)cc1)N1CCC(Cc2ccccc2)CC1 (stereo unspecified) [Ifenprodil hemitartrate] | 1.34 ± 0.11 | 1.11 ± 0.24 | 1.26 ± 0.15 | 1.14 ± 0.058 | 1.36 ± 0.09 | 1.16 ± 0.1 | – | 1.03 ± 0.58 | 0.482 ± 0.19 | 0.69 ± 0.11 | 1.28 ± 0.29 | 1.16 ± 0.2 | 0.992 ± 0.23 | 0.679 ± 0.1 | 0.907 ± 0.09 | 1.03 ± 0.18 | 0.395 ± 0.035 | 0.838 ± 0.062 |
